Source: PubChem BioAssay AID256 (DTP/NCI, 2004)
The list is a part of this screen's results and no random one: it is rich in T/C values a quarter to a half above the control, in often repeated tests (any T/C) and in doses without a T/C. Other doses and runs of a compound stand elsewhere. T/C is the treated group as % of the vehicle group. Some entries give survivors of the animals treated and no T/C: the source holds a T/C of zero for them, seemingly a mark for toxic or unscored doses. Some survivor counts are full or nearly so, which does not show that the dose was tolerated: survival well below the control is almost never listed, so the zero probably covers shortened survival too. Counts of survivors are from the toxicity check (mostly the fifth day) where no day follows; animals may have died later. Schedules are NCI's codes, read here as Q, the interval in days (D) or hours (H), X, the number of doses. Some doses were run more than once; their values stand side by side, smallest first. For survival time, this PubChem deposit counts one and a half times the control or more as active, and values a quarter to a half above the control carry no call in these data; other NCI protocols may use other cut-offs. Some T/C values carry the count of animals alive at the toxicity check (mostly the fifth day); without a count, all were alive then.

Test system: CD2F1 mice, L1210 leukemia ip, survival T/C
Assay: NCI In Vivo Anticancer Drug Screen. Data for tumor model L1210 Leukemia (intraperitoneal) in CD2F1 (CDF1) mice
Conditions: higher T/C = longer survival
How it was run: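 Antitumor effect is scored in animals hosting a serially transplanted tumor. Values compare compound-dosed animals against vehicle-only controls as a simple quotient.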

[1] = T/C endpoint: mean survival time, dose: 200.0 mg/kg/injection, schedule: Q01DX009 (ip), vehicle: saline with Tween-80
[2] = T/C endpoint: mean survival time, dose: 100.0 mg/kg/injection, schedule: Q01DX009 (ip), vehicle: suspension in saline
[3] = T/C endpoint: median survival time, dose: 50.0 mg/kg/injection, schedule: Q01DX005 (ip), vehicle: saline
[4] = T/C endpoint: median survival time, dose: 100.0 mg/kg/injection, schedule: Q01DX001 (ip), vehicle: saline
[5] = T/C endpoint: median survival time, dose: 100.0 mg/kg/injection, schedule: Q01DX005 (ip), vehicle: saline
[6] = T/C endpoint: mean survival time, dose: 400.0 mg/kg/injection, schedule: Q04DX003 (ip), vehicle: saline with Tween-80
[7] = T/C endpoint: mean survival time, dose: 400.0 mg/kg/injection, schedule: Q04DX002 (ip), vehicle: saline with Tween-80

Compound: O=C(O)/C=C\C(=O)OCc1ccc(Cl)cc1Cl
- survivor count [1]: 2 of 6
- survivor count (T/C endpoint: mean survival time, dose: 400.0 mg/kg/injection, schedule: Q01DX009 (ip), vehicle: saline with Tween-80): 0 of 6

Compound: O=c1n(CC2CO2)c(=O)n(CC2CO2)c(=O)n1CC1CO1 (centres undefined)
- T/C (T/C endpoint: mean survival time, dose: 5.0 mg/kg/injection, schedule: Q01DX009 (ip), vehicle: saline): 125 % of control
- T/C (T/C endpoint: mean survival time, dose: 6.25 mg/kg/injection, schedule: Q01DX009 (ip), vehicle: saline with Tween-80): 128 and 139 % of control
- T/C (T/C endpoint: mean survival time, dose: 6.25 mg/kg/injection, schedule: Q01DX009 (ip), vehicle: saline): 127 % of control
- T/C (T/C endpoint: mean survival time, dose: 10.0 mg/kg/injection, schedule: Q01DX009 (ip), vehicle: saline): 134 % of control
- T/C (T/C endpoint: mean survival time, dose: 12.5 mg/kg/injection, schedule: Q01DX009 (ip), vehicle: saline, evaluated on day 30): 128, 130, 143 % of control
- T/C (T/C endpoint: mean survival time, dose: 12.5 mg/kg/injection, schedule: Q01DX009 (ip), vehicle: saline, evaluated on day 60): 148 % of control
- T/C (T/C endpoint: mean survival time, dose: 12.5 mg/kg/injection, schedule: Q01DX009 (ip), vehicle: suspension in saline): 127 and 128 % of control
- T/C (T/C endpoint: mean survival time, dose: 12.5 mg/kg/injection, schedule: Q04DX003 (ip), vehicle: saline): 130 % of control
- T/C (T/C endpoint: mean survival time, dose: 25.0 mg/kg/injection, schedule: Q01DX009 (ip), vehicle: saline): 138, 140, 143 % of control
- T/C (T/C endpoint: mean survival time, dose: 25.0 mg/kg/injection, schedule: Q04DX005 (ip), vehicle: saline): 140 % of control
- T/C (T/C endpoint: mean survival time, dose: 50.0 mg/kg/injection, schedule: Q01DX009 (ip), vehicle: saline, evaluated on day 30): 110, 118, 138, 297 % of control
- T/C (T/C endpoint: mean survival time, dose: 50.0 mg/kg/injection, schedule: Q01DX009 (ip), vehicle: saline, evaluated on day 60): 101 % of control
- T/C (T/C endpoint: mean survival time, dose: 70.0 mg/kg/injection, schedule: Q01DX001 (ip), vehicle: saline): 146 % of control
- survivor count (T/C endpoint: mean survival time, dose: 75.0 mg/kg/injection, schedule: Q01DX009 (ip), vehicle: saline): 6 of 6
- survivor count (T/C endpoint: mean survival time, dose: 100.0 mg/kg/injection, schedule: Q01DX009 (ip), vehicle: saline with Tween-80): 6 of 6
- T/C [2]: 146 % of control
- survivor count [2]: 4 of 6
- T/C (T/C endpoint: mean survival time, dose: 100.0 mg/kg/injection, schedule: Q04DX005 (ip), vehicle: saline): 146 % of control
- T/C (T/C endpoint: mean survival time, dose: 150.0 mg/kg/injection, schedule: Q01DX009 (ip), vehicle: saline): 147 and 148 % of control
- survivor count [1]: 0 of 6 and 3 of 6
- survivor count (T/C endpoint: mean survival time, dose: 200.0 mg/kg/injection, schedule: Q01DX009 (ip), vehicle: suspension in saline): 0 of 6 and 4 of 6
- survivor count (T/C endpoint: mean survival time, dose: 400.0 mg/kg/injection, schedule: Q01DX009 (ip), vehicle: saline): 3 of 6
- T/C (T/C endpoint: median survival time, dose: 5.0 mg/kg/injection, schedule: Q01DX009 (ip), vehicle: saline): 127 % of control
- T/C (T/C endpoint: median survival time, dose: 10.0 mg/kg/injection, schedule: Q01DX009 (ip), vehicle: saline): 141 % of control
- T/C (T/C endpoint: median survival time, dose: 25.0 mg/kg/injection, schedule: Q01DX001 (ip), vehicle: saline): 140 % of control
- T/C (T/C endpoint: median survival time, dose: 25.0 mg/kg/injection, schedule: Q01DX005 (iv), vehicle: saline): 134 % of control
- survivor count (T/C endpoint: median survival time, dose: 30.0 mg/kg/injection, schedule: Q03HX008 (ip), vehicle: saline): 7 of 10
- survivor count (T/C endpoint: median survival time, dose: 30.0 mg/kg/injection, schedule: Q03HX016 (ip), vehicle: saline): 7 of 10
- survivor count (T/C endpoint: median survival time, dose: 30.0 mg/kg/injection, schedule: Q03HX024 (ip), vehicle: saline): 8 of 10
- T/C (T/C endpoint: median survival time, dose: 35.0 mg/kg/injection, schedule: Q03HX024 (ip), vehicle: saline): 128 % of control
- survivor count (T/C endpoint: median survival time, dose: 40.0 mg/kg/injection, schedule: Q03HX008 (ip), vehicle: saline): 2 of 10
- survivor count (T/C endpoint: median survival time, dose: 40.0 mg/kg/injection, schedule: Q03HX016 (ip), vehicle: saline): 5 of 10
- T/C (T/C endpoint: median survival time, dose: 50.0 mg/kg/injection, schedule: Q01DX001 (iv), vehicle: saline): 133 % of control
- survivor count [3]: 8 of 8
- survivor count (T/C endpoint: median survival time, dose: 50.0 mg/kg/injection, schedule: Q01DX005 (iv), vehicle: saline): 8 of 8
- T/C (T/C endpoint: median survival time, dose: 50.0 mg/kg/injection, schedule: Q01DX009 (oral), vehicle: saline): 140 % of control
- T/C (T/C endpoint: median survival time, dose: 70.0 mg/kg/injection, schedule: Q01DX009 (ip), vehicle: saline): 135 % of control
- T/C [4]: 140 % of control
- survivor count [4]: 4 of 10
- survivor count [5]: 2 of 8
- survivor count (T/C endpoint: median survival time, dose: 100.0 mg/kg/injection, schedule: Q01DX005 (iv), vehicle: saline): 4 of 8
- T/C (T/C endpoint: median survival time, dose: 100.0 mg/kg/injection, schedule: Q04DX003 (oral), vehicle: saline): 132 % of control
- T/C (T/C endpoint: median survival time, dose: 100.0 mg/kg/injection, schedule: Q08DX002 (oral), vehicle: saline): 128 % of control
- T/C (T/C endpoint: median survival time, dose: 150.0 mg/kg/injection, schedule: Q01DX001 (ip), vehicle: saline): 140 % of control
- T/C (T/C endpoint: median survival time, dose: 150.0 mg/kg/injection, schedule: Q01DX009 (oral), vehicle: saline): 139 % of control
- T/C (T/C endpoint: median survival time, dose: 150.0 mg/kg/injection, schedule: Q08DX002 (ip), vehicle: saline): 127 % of control
- survivor count (T/C endpoint: median survival time, dose: 200.0 mg/kg/injection, schedule: Q01DX001 (ip), vehicle: saline): 2 of 10
- T/C (T/C endpoint: median survival time, dose: 200.0 mg/kg/injection, schedule: Q01DX001 (oral), vehicle: saline): 130 % of control
- T/C (T/C endpoint: median survival time, dose: 200.0 mg/kg/injection, schedule: Q01DX005 (oral), vehicle: saline): 135 % of control
- survivor count (T/C endpoint: median survival time, dose: 200.0 mg/kg/injection, schedule: Q04DX003 (ip), vehicle: saline): 2 of 10
- survivor count (T/C endpoint: median survival time, dose: 200.0 mg/kg/injection, schedule: Q08DX002 (ip), vehicle: saline): 1 of 10
- T/C (T/C endpoint: median survival time, dose: 250.0 mg/kg/injection, schedule: Q01DX001 (ip), vehicle: saline): 139 % of control
- T/C (T/C endpoint: median survival time, dose: 250.0 mg/kg/injection, schedule: Q01DX005 (oral), vehicle: saline): 144 % of control [9 of 10 alive]
- survivor count (T/C endpoint: median survival time, dose: 300.0 mg/kg/injection, schedule: Q01DX001 (ip), vehicle: saline): 0 of 10
- T/C (T/C endpoint: median survival time, dose: 300.0 mg/kg/injection, schedule: Q01DX001 (oral), vehicle: saline): 148 % of control
- T/C (T/C endpoint: median survival time, dose: 300.0 mg/kg/injection, schedule: Q01DX005 (oral), vehicle: saline): 139 % of control
- survivor count (T/C endpoint: median survival time, dose: 300.0 mg/kg/injection, schedule: Q08DX002 (ip), vehicle: saline): 0 of 10
- T/C (T/C endpoint: median survival time, dose: 400.0 mg/kg/injection, schedule: Q08DX002 (ip), vehicle: saline): 145 % of control
- T/C (T/C endpoint: median survival time, dose: 450.0 mg/kg/injection, schedule: Q01DX001 (oral), vehicle: saline): 133 % of control
- T/C (T/C endpoint: median survival time, dose: 500.0 mg/kg/injection, schedule: Q01DX001 (oral), vehicle: saline): 139 % of control

Compound: CC(C)(CN=Cc1ccccc1[O-])N=Cc1ccccc1[O-].[O]=[V]
- survivor count [6]: 0 of 6

Compound: N#CN=C(N)NC(=O)c1ccccc1
- survivor count [6]: 1 of 3

Compound: CNc1nc(-c2ccncc2)nc(N(C)C)n1
- survivor count [7]: 0 of 3

Compound: Cc1cn(C2CC(OP(=O)(O)OCC3OC(n4cc(C)c(=O)[nH]c4=O)CC3OP(=O)(O)OCC3OC(n4cc(C)c(=O)[nH]c4=O)CC3OP(=O)(O)OCC3OC(n4cc(C)c(=O)[nH]c4=O)CC3OP(=O)(O)OCC3OC(n4ccc(N)nc4=O)C(O)C3O)C(CO)O2)c(=O)[nH]c1=O (centres undefined)
- T/C [3]: 130 % of control
- T/C [5]: 139 % of control
- T/C (T/C endpoint: median survival time, dose: 200.0 mg/kg/injection, schedule: Q01DX005 (ip), vehicle: saline): 135 and 139 % of control
- T/C (T/C endpoint: median survival time, dose: 400.0 mg/kg/injection, schedule: Q01DX005 (ip), vehicle: saline): 148 % of control

Compound: CCCCCCCCCCCCCC1CCCC(C)N1 (centres undefined)
- survivor count (T/C endpoint: mean survival time, dose: 200.0 mg/kg/injection, schedule: Q04DX002 (ip), vehicle: saline with Tween-80): 3 of 3
- survivor count [7]: 0 of 3 and 1 of 3

Compound: O=C1C2C3C=CC(O3)C2C(=O)N1O (centres undefined)
- survivor count (T/C endpoint: mean survival time, dose: 50.0 mg/kg/injection, schedule: Q01DX009 (ip), vehicle: water): 6 of 6
- survivor count (T/C endpoint: mean survival time, dose: 100.0 mg/kg/injection, schedule: Q01DX009 (ip), vehicle: water): 3 of 6
- survivor count (T/C endpoint: mean survival time, dose: 200.0 mg/kg/injection, schedule: Q01DX009 (ip), vehicle: water): 0 of 6
